# Experimental data: the supplement of paper PMC12067093, “Discovery and optimisation of a covalent ligand for TRIM25 and its application to targeted protein ubiquitination” (Chemical Science, 2025)
# The chains behind the UniProt entries cited, without tags or fusion partners. Where a name states a change or a piece, a line headed by the entry shows the natural chain unless it says otherwise.
# UniProt O94906: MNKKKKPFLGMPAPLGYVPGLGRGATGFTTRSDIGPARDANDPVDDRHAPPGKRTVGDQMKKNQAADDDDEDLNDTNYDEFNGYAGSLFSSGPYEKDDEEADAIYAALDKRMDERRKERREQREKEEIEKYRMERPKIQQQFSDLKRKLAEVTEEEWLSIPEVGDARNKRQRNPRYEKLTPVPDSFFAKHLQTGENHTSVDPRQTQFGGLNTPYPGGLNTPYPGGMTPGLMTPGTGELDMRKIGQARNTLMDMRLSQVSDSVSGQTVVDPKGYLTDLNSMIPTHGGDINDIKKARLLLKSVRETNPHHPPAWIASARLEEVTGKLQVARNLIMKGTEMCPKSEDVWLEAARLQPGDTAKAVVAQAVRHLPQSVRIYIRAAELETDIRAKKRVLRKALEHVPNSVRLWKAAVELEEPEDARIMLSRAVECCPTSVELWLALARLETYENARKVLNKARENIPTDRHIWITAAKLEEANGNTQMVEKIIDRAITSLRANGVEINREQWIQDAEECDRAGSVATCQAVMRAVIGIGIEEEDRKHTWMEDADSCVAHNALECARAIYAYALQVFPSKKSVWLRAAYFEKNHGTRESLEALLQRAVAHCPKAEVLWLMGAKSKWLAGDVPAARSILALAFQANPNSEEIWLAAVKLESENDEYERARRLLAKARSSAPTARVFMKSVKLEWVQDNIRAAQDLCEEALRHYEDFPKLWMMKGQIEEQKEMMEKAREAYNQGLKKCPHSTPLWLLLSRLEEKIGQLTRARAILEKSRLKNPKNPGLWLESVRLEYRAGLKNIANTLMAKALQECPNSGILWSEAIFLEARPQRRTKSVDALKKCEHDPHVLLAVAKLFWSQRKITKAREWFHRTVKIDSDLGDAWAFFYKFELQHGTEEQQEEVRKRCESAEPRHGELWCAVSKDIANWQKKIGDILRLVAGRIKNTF
# UniProt P79522: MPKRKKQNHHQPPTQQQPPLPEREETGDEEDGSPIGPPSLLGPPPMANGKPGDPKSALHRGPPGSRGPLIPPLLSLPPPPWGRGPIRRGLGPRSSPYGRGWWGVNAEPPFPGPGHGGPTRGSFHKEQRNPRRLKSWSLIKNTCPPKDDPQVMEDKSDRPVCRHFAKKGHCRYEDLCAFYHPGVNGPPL
# UniProt Q05655: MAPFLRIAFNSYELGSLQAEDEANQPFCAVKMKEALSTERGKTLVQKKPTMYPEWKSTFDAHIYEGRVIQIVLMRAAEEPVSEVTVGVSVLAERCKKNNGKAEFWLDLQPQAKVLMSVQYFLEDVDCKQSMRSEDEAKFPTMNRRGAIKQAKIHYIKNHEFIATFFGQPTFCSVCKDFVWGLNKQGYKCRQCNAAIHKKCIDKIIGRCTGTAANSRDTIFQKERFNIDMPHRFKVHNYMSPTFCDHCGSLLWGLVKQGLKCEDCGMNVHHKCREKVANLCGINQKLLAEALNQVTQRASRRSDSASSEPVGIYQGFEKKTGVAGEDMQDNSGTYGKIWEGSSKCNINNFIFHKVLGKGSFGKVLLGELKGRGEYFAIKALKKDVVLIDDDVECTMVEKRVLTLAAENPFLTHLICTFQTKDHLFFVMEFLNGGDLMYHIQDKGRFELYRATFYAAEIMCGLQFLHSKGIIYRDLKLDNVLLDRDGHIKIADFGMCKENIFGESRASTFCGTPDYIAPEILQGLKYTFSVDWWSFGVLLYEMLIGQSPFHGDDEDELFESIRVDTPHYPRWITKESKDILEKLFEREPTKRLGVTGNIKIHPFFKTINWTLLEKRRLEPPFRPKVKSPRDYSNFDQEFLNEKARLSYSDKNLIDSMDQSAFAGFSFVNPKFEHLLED
# UniProt O43172: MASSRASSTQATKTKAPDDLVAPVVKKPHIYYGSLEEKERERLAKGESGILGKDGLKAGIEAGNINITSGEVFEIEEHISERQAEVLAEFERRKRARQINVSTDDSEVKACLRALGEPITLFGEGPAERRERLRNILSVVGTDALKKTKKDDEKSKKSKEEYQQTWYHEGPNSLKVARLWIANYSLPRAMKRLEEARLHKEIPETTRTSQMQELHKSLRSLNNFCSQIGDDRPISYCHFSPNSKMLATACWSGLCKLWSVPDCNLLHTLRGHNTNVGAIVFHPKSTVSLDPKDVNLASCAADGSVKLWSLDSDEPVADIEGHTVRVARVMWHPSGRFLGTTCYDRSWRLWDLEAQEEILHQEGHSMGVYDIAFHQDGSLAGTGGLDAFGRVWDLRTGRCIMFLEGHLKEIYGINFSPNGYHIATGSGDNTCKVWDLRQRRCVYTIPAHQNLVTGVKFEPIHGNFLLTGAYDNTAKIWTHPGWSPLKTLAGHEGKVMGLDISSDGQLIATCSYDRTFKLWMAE
# UniProt Q86TP1: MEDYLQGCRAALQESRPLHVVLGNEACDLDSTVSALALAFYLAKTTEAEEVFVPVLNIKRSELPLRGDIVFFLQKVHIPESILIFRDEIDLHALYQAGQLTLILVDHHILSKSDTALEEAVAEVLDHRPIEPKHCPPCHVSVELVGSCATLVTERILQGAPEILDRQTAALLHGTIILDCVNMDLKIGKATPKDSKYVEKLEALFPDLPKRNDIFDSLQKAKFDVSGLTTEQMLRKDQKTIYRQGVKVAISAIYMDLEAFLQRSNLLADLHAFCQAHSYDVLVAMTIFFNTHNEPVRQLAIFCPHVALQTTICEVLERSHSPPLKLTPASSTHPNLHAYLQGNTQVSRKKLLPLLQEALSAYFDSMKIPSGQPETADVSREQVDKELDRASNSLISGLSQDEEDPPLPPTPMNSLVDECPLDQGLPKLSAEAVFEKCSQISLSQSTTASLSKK
# UniProt P60891: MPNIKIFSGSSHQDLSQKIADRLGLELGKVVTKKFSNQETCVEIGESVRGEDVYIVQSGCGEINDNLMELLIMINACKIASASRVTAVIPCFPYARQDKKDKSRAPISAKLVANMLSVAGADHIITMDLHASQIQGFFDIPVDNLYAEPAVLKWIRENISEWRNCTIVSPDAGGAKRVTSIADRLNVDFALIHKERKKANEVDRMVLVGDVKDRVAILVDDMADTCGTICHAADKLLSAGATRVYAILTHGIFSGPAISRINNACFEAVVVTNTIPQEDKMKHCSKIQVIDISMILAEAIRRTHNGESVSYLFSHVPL
# UniProt P11908: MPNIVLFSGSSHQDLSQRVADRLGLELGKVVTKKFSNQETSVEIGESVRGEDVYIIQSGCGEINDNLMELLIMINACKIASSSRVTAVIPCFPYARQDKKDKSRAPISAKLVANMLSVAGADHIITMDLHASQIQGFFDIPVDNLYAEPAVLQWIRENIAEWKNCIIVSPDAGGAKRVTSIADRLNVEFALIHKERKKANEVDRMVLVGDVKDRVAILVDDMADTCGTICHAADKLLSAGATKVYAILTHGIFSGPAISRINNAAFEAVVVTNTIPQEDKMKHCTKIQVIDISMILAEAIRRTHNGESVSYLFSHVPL
# UniProt O43395: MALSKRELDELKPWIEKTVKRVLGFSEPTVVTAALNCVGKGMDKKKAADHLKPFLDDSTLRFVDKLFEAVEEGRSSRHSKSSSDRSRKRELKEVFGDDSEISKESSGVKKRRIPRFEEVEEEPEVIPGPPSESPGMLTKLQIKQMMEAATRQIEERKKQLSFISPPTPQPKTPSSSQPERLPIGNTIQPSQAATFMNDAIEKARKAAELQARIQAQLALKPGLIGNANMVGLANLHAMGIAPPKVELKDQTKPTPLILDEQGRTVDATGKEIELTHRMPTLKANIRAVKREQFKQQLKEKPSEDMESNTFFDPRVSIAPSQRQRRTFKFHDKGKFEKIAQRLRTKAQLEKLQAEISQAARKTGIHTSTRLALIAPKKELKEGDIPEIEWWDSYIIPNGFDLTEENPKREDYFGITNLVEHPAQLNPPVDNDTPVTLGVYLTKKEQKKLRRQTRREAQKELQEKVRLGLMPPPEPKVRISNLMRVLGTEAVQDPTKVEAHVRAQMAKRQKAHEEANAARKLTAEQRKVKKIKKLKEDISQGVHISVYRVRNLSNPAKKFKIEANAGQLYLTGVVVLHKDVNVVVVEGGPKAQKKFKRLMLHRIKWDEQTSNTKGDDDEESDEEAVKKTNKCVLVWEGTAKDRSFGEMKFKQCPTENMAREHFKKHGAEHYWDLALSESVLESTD
# UniProt Q9BZL6: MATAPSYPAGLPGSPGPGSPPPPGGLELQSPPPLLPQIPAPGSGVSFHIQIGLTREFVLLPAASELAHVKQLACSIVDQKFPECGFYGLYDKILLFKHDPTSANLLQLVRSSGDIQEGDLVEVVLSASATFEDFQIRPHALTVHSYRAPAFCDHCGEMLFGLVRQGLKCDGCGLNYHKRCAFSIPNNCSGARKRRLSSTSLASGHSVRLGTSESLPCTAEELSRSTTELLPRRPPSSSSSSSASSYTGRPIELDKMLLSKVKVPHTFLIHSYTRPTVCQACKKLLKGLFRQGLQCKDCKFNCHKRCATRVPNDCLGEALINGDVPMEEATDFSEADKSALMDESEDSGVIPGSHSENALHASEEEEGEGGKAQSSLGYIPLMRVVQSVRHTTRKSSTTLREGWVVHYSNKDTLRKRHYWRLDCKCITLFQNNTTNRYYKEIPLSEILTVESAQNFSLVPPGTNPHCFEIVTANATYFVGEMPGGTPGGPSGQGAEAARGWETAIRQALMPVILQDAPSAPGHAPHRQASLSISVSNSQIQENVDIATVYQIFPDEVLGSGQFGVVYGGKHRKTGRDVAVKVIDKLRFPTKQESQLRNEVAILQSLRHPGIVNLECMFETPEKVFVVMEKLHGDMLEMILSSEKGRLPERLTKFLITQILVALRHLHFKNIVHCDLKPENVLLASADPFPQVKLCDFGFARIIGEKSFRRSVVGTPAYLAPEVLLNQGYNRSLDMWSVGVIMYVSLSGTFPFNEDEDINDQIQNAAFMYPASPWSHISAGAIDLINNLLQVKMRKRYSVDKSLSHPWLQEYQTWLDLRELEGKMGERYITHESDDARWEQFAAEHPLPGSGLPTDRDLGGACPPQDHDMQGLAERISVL
# UniProt O14744, whole entry, looked up: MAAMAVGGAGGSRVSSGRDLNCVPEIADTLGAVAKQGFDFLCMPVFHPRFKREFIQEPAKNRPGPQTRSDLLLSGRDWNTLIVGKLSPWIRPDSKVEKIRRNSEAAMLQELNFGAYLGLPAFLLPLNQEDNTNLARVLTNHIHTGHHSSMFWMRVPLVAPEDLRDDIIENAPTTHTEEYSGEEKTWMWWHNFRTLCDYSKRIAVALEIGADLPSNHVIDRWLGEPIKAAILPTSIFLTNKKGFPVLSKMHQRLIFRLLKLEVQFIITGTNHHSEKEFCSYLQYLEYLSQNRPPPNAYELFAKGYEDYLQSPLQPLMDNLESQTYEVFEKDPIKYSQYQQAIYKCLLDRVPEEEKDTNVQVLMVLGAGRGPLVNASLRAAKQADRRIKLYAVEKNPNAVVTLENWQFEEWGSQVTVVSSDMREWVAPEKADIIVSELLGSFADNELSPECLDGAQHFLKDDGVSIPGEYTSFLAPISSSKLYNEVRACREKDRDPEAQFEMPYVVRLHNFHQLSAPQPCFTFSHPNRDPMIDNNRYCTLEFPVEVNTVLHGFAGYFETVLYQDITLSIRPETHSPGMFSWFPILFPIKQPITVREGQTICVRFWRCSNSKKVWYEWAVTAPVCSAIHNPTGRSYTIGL
# UniProt O75569: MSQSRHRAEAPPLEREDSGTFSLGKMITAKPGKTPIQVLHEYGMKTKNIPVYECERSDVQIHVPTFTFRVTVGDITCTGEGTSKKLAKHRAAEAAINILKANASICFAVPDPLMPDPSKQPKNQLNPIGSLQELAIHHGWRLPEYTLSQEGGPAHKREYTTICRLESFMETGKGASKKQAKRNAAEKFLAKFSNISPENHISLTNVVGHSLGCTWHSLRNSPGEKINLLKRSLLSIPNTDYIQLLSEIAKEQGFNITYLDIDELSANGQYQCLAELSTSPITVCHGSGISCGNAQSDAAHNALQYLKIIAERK
# UniProt P24158: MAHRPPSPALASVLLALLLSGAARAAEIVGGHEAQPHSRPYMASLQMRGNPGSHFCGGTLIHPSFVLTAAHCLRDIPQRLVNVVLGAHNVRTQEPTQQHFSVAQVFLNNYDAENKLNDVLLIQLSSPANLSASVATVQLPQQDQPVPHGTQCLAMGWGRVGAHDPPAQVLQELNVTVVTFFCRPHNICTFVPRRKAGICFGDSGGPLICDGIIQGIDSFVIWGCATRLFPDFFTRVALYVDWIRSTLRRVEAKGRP
# UniProt Q99873, whole entry, looked up: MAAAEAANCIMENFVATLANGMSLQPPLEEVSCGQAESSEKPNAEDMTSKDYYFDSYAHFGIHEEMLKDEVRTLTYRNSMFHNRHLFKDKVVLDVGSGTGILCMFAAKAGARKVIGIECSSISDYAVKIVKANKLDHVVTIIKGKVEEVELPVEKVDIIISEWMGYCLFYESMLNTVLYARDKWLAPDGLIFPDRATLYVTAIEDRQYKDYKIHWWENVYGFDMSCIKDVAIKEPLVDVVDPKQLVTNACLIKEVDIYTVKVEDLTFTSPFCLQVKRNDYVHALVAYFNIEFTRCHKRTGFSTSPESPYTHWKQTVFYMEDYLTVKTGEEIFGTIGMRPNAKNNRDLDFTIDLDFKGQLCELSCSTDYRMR
# The list shows a part of the results.
# Compound: Cc1cc(ccc1-c1ccccc1)C(=O)N1CCCN(CC1)C(=O)CCl [compound 10]
# Assay: probe-labelled cysteine peptide fold change vs DMSO (competition) (log2 fold change); higher = less target engagement (more negative = stronger competition)
# Conditions: THP-1, incubation time: 4 h
# 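Note: competitive profiling in live THP-1 cells: cysteine peptides tagged with an iodoacetamide desthiobiotin (IA-DTB) probe, intensity after compound treatment relative to DMSO-treated cells.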
Target,probe-labelled cysteine peptide fold change (10 µM),probe-labelled cysteine peptide fold change (50 µM)
PRSS12_P56730_349_CTGNELSIEQCPK (UniProt P56730),-0.104,0.148
PRPF6_O94906_550_HTWMEDADSCVAHNALECAR (UniProt O94906),0.0185,0.164
PRR3_P79522_161_SDRPVCR (UniProt P79522),0.149,-0.0851
PRKCD_Q05655_127_VLMSVQYFLEDVDCK (UniProt Q05655),-0.226,-0.31
PRKDC_P78527_1791_RGSCVTQVGLLESVYEMFRK (UniProt P78527),-0.174,-0.301
PRPF38B_Q5VTL8_113_TAGQTGMCGGVR (UniProt Q5VTL8),-0.121,-0.672
PRKDC_P78527_4106_CLMDQATDPNILGR (UniProt P78527),-0.313,-0.125
PRKCA_P17252_132+135_CDTCDMNVHK (UniProt P17252),-0.182,-0.425
PRMT7_Q9NVM4_136_HSTEVTVGPEGDMPCR (UniProt Q9NVM4),-0.288,-0.257
PRPF6_O94906_807_ALQECPNSGILWSEAIFLEARPQRR (UniProt O94906),-0.234,-0.451
PRKCB_P05771_53_QPTFCSHCTDFIWGFGK (UniProt P05771),-0.215,-0.115
PRKAR2A_P13861_134_LQEACK (UniProt P13861),-0.239,-0.0313
PRPF4_O43172_299_DVNLASCAADGSVK (UniProt O43172),-0.149,-0.0256
PRPF4_O43172_263_LWSVPDCNLLHTLR (UniProt O43172),0.0669,0.105
PRUNE1_Q86TP1_180_QTAALLHGTIILDCVNMDLK (UniProt Q86TP1),0.322,0.175
PRPF8_Q6P2Q9_547_FGNAFHLCR (UniProt Q6P2Q9),0.218,0.43
PRKCI_P41743_157_AHCAICTDR (UniProt P41743),0.104,0.311
PRPF19_Q9UMS4_230_QVASHVGLHSASIPGILALDLCPSDTNK (UniProt Q9UMS4),-0.0812,-0.0167
PRPS1_P60891_265_INNACFEAVVVTNTIPQEDK (UniProt P60891),0.0817,-0.0107
PRRC2C_Q9Y520_2340_STTTSDPPNICK (UniProt Q9Y520),-0.229,-0.462
PRKDC_P78527_1364_DLCNTHLMR (UniProt P78527),-0.0526,-0.0393

Target,probe-labelled cysteine peptide fold change (10 µM),probe-labelled cysteine peptide fold change (50 µM)
PRRC2A_P48634_437_GGPPCKPPAPEDEDEAWR (UniProt P48634),-0.229,-0.295
PRPS2_P11908_226+230_DRVAILVDDMADTCGTICHAADK (UniProt P11908),0.366,-0.386
PRPF3_O43395_651_QCPTENMAR (UniProt O43395),-0.161,-0.0737
PRKDC_P78527_90_FLCIFLEK (UniProt P78527),-0.272,0.234
PRKCA_P17252_86_CHEFVTFSCPGADKGPDTDDPR (UniProt P17252),-0.0149,-0.343
PRPF8_Q6P2Q9_1896_GSELQLPFQACLK (UniProt Q6P2Q9),0.0122,0.217
PRMT9_Q6P2P2_290_GESANCEK (UniProt Q6P2P2),-0.112,-0.0837
PRKDC_P78527_1127+1135_SLGTIQQCCDAIDHLCR (UniProt P78527),0.0784,-0.0108
PROSER1_Q86XN7_139_APHAMISSCGTIPGNPYPK (UniProt Q86XN7),-0.221,-0.552
PRKCD_Q05655_393_DVVLIDDDVECTMVEKR (UniProt Q05655),-0.615,-0.761
PRKCB_P05771_132_CDTCMMNVHK (UniProt P05771),0.095,-0.102
PRKD3_O94806_204_IPNNCSGVR (UniProt O94806),0.183,0.308
PRKCQ_Q04759_281_VANLCGINQK (UniProt Q04759),-0.607,-0.997
PRKCB_P05771_78+86_CHEFVTFSCPGADK (UniProt P05771),-0.133,-0.364
PSIP1_O75475_204_QPCPSESDIITEEDK (UniProt O75475),-0.125,-1.03
PRKD2_Q9BZL6_278_VPHTFLIHSYTRPTVCQACK (UniProt Q9BZL6),-0.537,-0.15
PRPF19_Q9UMS4_355_VTDETSGCSLTCAQFHPDGLIFGTGTMDSQIK (UniProt Q9UMS4),0.114,-0.223
PRR12_Q9ULL5_112_FVPLTSICFPDSLLQDEER (UniProt Q9ULL5),0.0521,-0.301
PRKDC_P78527_630_DFSAFINLVEFCR (UniProt P78527),0.137,0.157
PRKCD_Q05655_172_NHEFIATFFGQPTFCSVCK (UniProt Q05655),-0.307,-0.424
PRKCD_Q05655_509_ASTFCGTPDYIAPEILQGLK (UniProt Q05655),-0.222,0.515

Target,probe-labelled cysteine peptide fold change (10 µM),probe-labelled cysteine peptide fold change (50 µM)
PRMT5_O14744_518_LHNFHQLSAPQPCFTFSHPNR (UniProt O14744),-0.036,0.18
PRKRA_O75569_163_EYTTICR (UniProt O75569),0.145,-0.169
PRKRA_O75569_106_ANASICFAVPDPLMPDPSK (UniProt O75569),-0.119,-0.533
PRMT5_O14744_622_VWYEWAVTAPVCSAIHNPTGR (UniProt O14744),0.25,0.5
PSMA2_P25787_213_ESFEGQMTEDNIEVGICNEAGFR (UniProt P25787),-0.0416,0.0586
PRKDC_P78527_1176_WLLAHCGRPQTECR (UniProt P78527),-0.119,0.102
PRPF3_O43395_37_VLGFSEPTVVTAALNCVGK (UniProt O43395),0.233,-0.0316
PRKDC_P78527_1135_SLGTIQQCCDAIDHLCR (UniProt P78527),0.172,0.263
PRKD2_Q9BZL6_188_CAFSIPNNCSGAR (UniProt Q9BZL6),-0.312,-0.0796
PRUNE1_Q86TP1_303_QLAIFCPHVALQTTICEVLER (UniProt Q86TP1),-0.0186,-0.0629
PRKCB_P05771_143_CVMNVPSLCGTDHTER (UniProt P05771),-0.00167,-0.0823
PRKCB_P05771_67_QGFQCQVCCFVVHK (UniProt P05771),-0.0411,0.0253
PRKD2_Q9BZL6_217_LGTSESLPCTAEELSR (UniProt Q9BZL6),-0.106,-0.386
PRKDC_P78527_3781_VEQLFQVMNGILAQDSACSQR (UniProt P78527),0.0493,-0.0398
PRKDC_P78527_1364_KDLCNTHLMR (UniProt P78527),-0.0343,-0.343
PRPS2_P11908_226+230_VAILVDDMADTCGTICHAADK (UniProt P11908),0.31,-0.412
PRKDC_P78527_2093_DPTVHDDVLELEMDELNRHECMAPLTALVK (UniProt P78527),-0.156,-0.199
PRKDC_P78527_1791_RGSCVTQVGLLESVYEMFR (UniProt P78527),-0.142,-0.151
PRKD2_Q9BZL6_615_HPGIVNLECMFETPEK (UniProt Q9BZL6),0.0527,0.295
PSMA1_P25786_92_QECLDSR (UniProt P25786),-0.082,-0.0433
PRTN3_P24158_56+72_GNPGSHFCGGTLIHPSFVLTAAHCLR (UniProt P24158),-0.204,-0.45

Target,probe-labelled cysteine peptide fold change (10 µM),probe-labelled cysteine peptide fold change (50 µM)
PRMT1_Q99873_272_VEDLTFTSPFCLQVK (UniProt Q99873),0.24,0.272
PRKCA_P17252_406_VLALLDKPPFLTQLHSCFQTVDR (UniProt P17252),0.213,0.544
PSD4_Q8NDX1_705_SMSCQEFITNLNGLR (UniProt Q8NDX1),0.0157,-0.159
PRKDC_P78527_3683_ECSPWMSDFKVEFLRNELEIPGQYDGR (UniProt P78527),-0.553,-0.67
PRKDC_P78527_1742_FNNYVDCMK (UniProt P78527),0.239,-0.0715
PRPS1_P60891_41_KFSNQETCVEIGESVR (UniProt P60891),0.0818,0.329
PRKD2_Q9BZL6_180+188_CAFSIPNNCSGAR (UniProt Q9BZL6),-0.223,-0.37
PRMT1_Q99873_360_GQLCELSCSTDYR (UniProt Q99873),0.0589,-0.365
PRKDC_P78527_1312_CFGTGAAGNR (UniProt P78527),0.132,0.136
PRKCD_Q05655_261+264_CEDCGMNVHHK (UniProt Q05655),-0.702,-1.69
PRR14L_Q5THK1_650_VESECVLNQQVSLNSQEHANLPTDSLLHLNK (UniProt Q5THK1),-0.519,-0.522
PRPF6_O94906_513_ANGVEINREQWIQDAEECDR (UniProt O94906),-0.364,-0.497
PRTN3_P24158_56_GNPGSHFCGGTLIHPSFVLTAAHCLR (UniProt P24158),-0.056,-0.165
PRKRA_O75569_213_FSNISPENHISLTNVVGHSLGCTWHSLR (UniProt O75569),-0.0469,-0.293
PRPS2_P11908_230_DRVAILVDDMADTCGTICHAADK (UniProt P11908),0.48,-0.309
PRKCA_P17252_132_CDTCDMNVHK (UniProt P17252),-0.00159,-0.156
PRKDC_P78527_3347_IIANALSSEPACLAEIEEDK (UniProt P78527),-0.0765,0.0937
PRKAA1_Q13131_313+321_FECSEEEVLSCLYNR (UniProt Q13131),-0.0579,-0.25
PRPF3_O43395_630_CVLVWEGTAK (UniProt O43395),-0.0988,-0.177
